Results deposited as PubChem BioAssay AID1671195 (Yale University, 2021).
Purpose: 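Genes whose knockdown alters LDL uptake in liver cancer cells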 (primary screen). Cell system: human Huh7 hepatoma cells. Reagent: siRNA pool against human genes, 18 nM. Timing: about 2 to 2.5 days of knockdown, then 8 h LDL uptake. Conditions: DiI-labelled LDL at 30 µg/ml for 8 h, in lipoprotein-deficient serum medium. Measurement: 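Per-cell DiI-LDL intensity by automated imaging; well means scaled to the plate median and given as a robust z-score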. Scale: robust z-score: higher = more LDL uptake after knockdown. Hit rule: 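a gene counts as active if at least two replicate z-scores exceed ±2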.
Here is a random part of about 22,000 deposited reagents. Of all reagents, about 1,510 (6.9%) were called active. 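Active includes knockdowns raising or lowering LDL uptake; positive z-scores mean more uptake, negative mean less.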

| Gene | PubChem SID | robust z-score, replicate 1 | robust z-score, replicate 2 | robust z-score, replicate 3 | call |
| --- | --- | --- | --- | --- | --- |
| NIPSNAP3B | SID442901897 | -0.961 | -1.22 | -0.76 | inactive |
| HLA-DMB | SID442894679 | -0.356 | 0.324 | -0.238 | inactive |
| LIMK2 | SID442886866 | 0.921 | 1.42 | 0.785 | inactive |
| NOS1 | SID442894228 | -0.323 | 0.0298 | 0.171 | inactive |
| MMP2 | SID442884204 | 2.01 | 1.07 | 2.06 | active |
| CHMP2A | SID442889971 | 0.102 | 1.68 | -0.337 | inactive |
| LOC441553 (retired record) | SID442901746 | -0.774 | -1.13 | -0.945 | inactive |
| AP4E1 | SID442904436 | -1.58 | -2.05 | -1.3 | inactive |
| LOC440946 (retired record) | SID442889147 | 0.353 | 0.642 | 0.822 | inactive |
| SNX12 | SID442888988 | 0.0423 | 1.02 | 0.83 | inactive |
| ARHGEF6 | SID442900091 | -0.629 | -0.57 | -0.934 | inactive |
| COX4I1 | SID442888773 | 0.663 | 1.3 | 0.0275 | inactive |
| STAT4 | SID442890299 | 0.397 | 0.72 | 0.19 | inactive |
| HINFP | SID442888084 | 0.63 | 0.708 | 1.02 | inactive |
| FMO1 | SID442887326 | 0.388 | 1.45 | 0.975 | inactive |
| CSDE1 | SID442883520 | 2.19 | 3.55 | 2.47 | active |
| SAXO5 | SID442895165 | -0.329 | -0.162 | 0.0665 | inactive |
| HID1 | SID442888096 | 1.06 | 0.564 | 0.724 | inactive |
| LOC441448 (retired record) | SID442888648 | 1.2 | 0.176 | 0.679 | inactive |
| PNISR | SID442894739 | 0.917 | -0.198 | -1.01 | inactive |
| OR4L1 | SID442887698 | 0.689 | 1.24 | 0.652 | inactive |
| SDF4 | SID442904593 | -1.7 | -1.64 | -1.87 | inactive |
| BMP8A | SID442887411 | 1.17 | 0.531 | 1.05 | inactive |
| BMP8A | SID442902313 | -0.997 | -0.975 | -1.17 | inactive |
| LEMD2 | SID442896758 | -0.442 | -0.386 | -0.0998 | inactive |
| UNC5C | SID442902916 | -1.25 | -1 | -1.27 | inactive |
| RTL9 | SID442892776 | -0.574 | 0.131 | 0.819 | inactive |
| LOC440454 (retired record) | SID442900505 | -0.392 | -1.15 | -0.765 | inactive |

Just “robust z-score, replicate 2” (2 entries from above):
PNISR [SID442894739]: -0.198
OR4L1 [SID442887698]: 1.24
